Values from PubChem BioAssay AID1053208 (Peter MacCallum Cancer Centre, 2014).
Purpose: 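Find knock-downs that sensitise mouse osteosarcoma cells to doxorubicin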 (primary screen). Cell system: mouse osteosarcoma cells, early-passage culture from an engineered mouse model of fibroblastic bone tumour. Reagents: siRNA pool against mouse genes, 40 nM. Duration: about 120 h (48 h before drug, then 72 h with drug). Treatment: doxorubicin 100 nM for 72 h, roughly 30-40% inhibitory dose. Measured: 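Luminescent ATP signal taken as viability with or without 100 nM doxorubicin for 72 h; mean of two wells set against non-targeting siRNA and turned into robust z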. Scale: viability z-score with doxorubicin and doxorubicin viability vs non-targeting: higher = more viable cells under doxorubicin; viability z-score without drug: higher = more viable cells with knock-down alone; z-score of drug to no-drug ratio: higher = less drug sensitisation by knock-down. Rule for the call: 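Called active if knock-down leaves viability unchanged without drug (z within -2 to 2) but lowers it with doxorubicin (z at or under -2)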.
Shown is one part, drawn at random, of about 17,000 deposited reagents. 788 of all reagents (4.7%) were called active. 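Calls rest on z-score classes alone; an extra cut-off of viability at most 70% of control was not applied to them.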 Entries without a mark were called inactive. No sequences are given here.

gene,combined z-score class,viability z-score with doxorubicin,viability z-score without drug,z-score of drug to no-drug ratio,doxorubicin viability vs non-targeting
Atad2,no change with or without drug,-0.9,-0.84,-0.22,0.86
Or13a28,no change with or without drug,0.45,0,0.56,0.98
Ahdc1,no change with or without drug,1.35,0.84,0.9,1.06
Fbxo3,no change with or without drug,-1.8,-0.17,-1.69,0.78
Krtap6-2,no change with or without drug,0.34,0.84,-0.11,0.97
Or9g4,no change with or without drug,-1.12,-0.34,-0.9,0.84
Dgkb,no change with or without drug,-0.22,-1.52,1.01,0.92
C730014E05Rik,no change with or without drug,-0.9,-0.51,-0.56,0.86

Continued, starting with the last 2 of the part before.
gene,combined z-score class,viability z-score with doxorubicin,viability z-score without drug,z-score of drug to no-drug ratio,doxorubicin viability vs non-targeting
Dgkb,no change with or without drug,-0.22,-1.52,1.01,0.92
C730014E05Rik,no change with or without drug,-0.9,-0.51,-0.56,0.86
Ap5z1,low cell count with doxorubicin only (active),-4.27,-1.52,-3.71,0.56
Arhgdib,no change with or without drug,-0.45,0.17,-0.45,0.9
H2-Q6,no change with or without drug,-1.35,-0.51,-1.01,0.82
Gk,no change with or without drug,0.45,0,0.56,0.98
Pramel7,no change with or without drug,0.67,-0.84,1.46,1
Dnajb8,no change with or without drug,0,0.84,-0.45,0.94
Cyp2c23,no change with or without drug,0.67,-1.18,1.8,1
Pdzd7,no change with or without drug,-0.45,-1.35,0.56,0.9
Adgra2,no change with or without drug,-0.22,-1.18,0.79,0.92
Susd6,no change with or without drug,-1.12,-0.17,-1.01,0.84
Or6c66,no change with or without drug,-0.67,0.84,-1.12,0.88
Smpx,no change with or without drug,0.56,-0.17,0.79,0.99
